The other results are listed elsewhere or left out.

The chains behind the UniProt entries cited, without tags or fusion partners.
UniProt Q0JBA9, entry or part of it: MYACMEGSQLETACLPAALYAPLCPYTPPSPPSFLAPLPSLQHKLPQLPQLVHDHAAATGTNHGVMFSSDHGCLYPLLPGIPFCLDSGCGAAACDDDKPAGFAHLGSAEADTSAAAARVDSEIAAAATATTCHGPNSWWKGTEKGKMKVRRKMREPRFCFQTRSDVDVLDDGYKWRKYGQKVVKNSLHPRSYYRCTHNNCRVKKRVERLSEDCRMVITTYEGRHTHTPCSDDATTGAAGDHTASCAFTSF

The assay has as its target OsWRKY34 (Oryza sativa, UniProt Q0JBA9 1-250). Put plainly: protein-binding microarray (RPBM); PBS, 2% BSA, 51.3 ng/ul salmon testes DNA, 50 uM zinc acetate, 200 nM TF, 25 C, 1 h; high values mean tight binding. Conditions: protein: recombinant; tags: N-terminal polyhistidine and DsRed monomer fusion (pET32a); label: CyDye5-dUTP incorporated in the synthesized complementary strand; 3' TTTTT single-stranded linker to array surface; dsDNA, one strand shown. In short, it runs like this: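 Transcription factors, each fused N-terminally to a polyhistidine tag and DsRed, were expressed in E. coli BL21-CodonPlus and purified on Ni–NTA. A custom Agilent array was made double-stranded by primer extension with Cy5-dUTP and blocked with 2% BSA. It was incubated with 200 nM protein in PBS, 2% BSA, salmon testes DNA and 50 µM zinc acetate at 25 °C for 1 h, then washed. The binding signal is per-feature fluorescence intensity (arbitrary units) read on an Axon 4000B scanner.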
As to “CTTCGTCGCTTCCGCGTGTCGTCACACTCCACTCCGTCCACGGAGTCACCTAGTGCAG”, the binding signal is 8490 fluorescence intensity (a.u.).

On to “TTTCATCAATTGCCTCTTGTATCAGCTACTATGCAATATACGGAGTCACCTAGTGCAG”, for which the binding signal was 8850 fluorescence intensity (a.u.).

In the case of “TGGTTTTGATTGATCGATATTGCTTTTGTTTACCATTGCCCGGAGTCACCTAGTGCAG”, the binding signal is 9180 fluorescence intensity (a.u.).

Turning to “CTATTCACTCGCAGAATCGGCGTACGCCGCTGTGGCTCCGCGGAGTCACCTAGTGCAG”, the binding signal was 8820 fluorescence intensity (a.u.).

For “CGCGGGTGGTCTGGTCTCTCTCTCGTATCGTATCGTATCACGGAGTCACCTAGTGCAG”, the binding signal was 16700 fluorescence intensity (a.u.).

Turning to “TAACTACGACGCTGCTCCAACTTCAACATATGCTAATTGCCGGAGTCACCTAGTGCAG”, the binding signal is 8740 fluorescence intensity (a.u.).

Take “TGTGCTGGTACTACTCCTTACTTTCCCGTCCTTAGCTCAGCGGAGTCACCTAGTGCAG”: the binding signal is 9010 fluorescence intensity (a.u.).

“CGACAGAGATGTGTTTCATGTGTTTCAAGTGGCCTGTCAACGGAGTCACCTAGTGCAG”: the binding signal was 8420 fluorescence intensity (a.u.).

As for “AAGGCTGAGATTATTTCCTTCCTGATACATACTGGTCCTACGGAGTCACCTAGTGCAG”, the binding signal is 9090 fluorescence intensity (a.u.).

On to “TTATTGTGCCACGTTATCTAGAACCGTCTTCAATATTGTCCGGAGTCACCTAGTGCAG”, for which the binding signal was 8430 fluorescence intensity (a.u.).

Consider “CTCCTCCTCCTCGCGCAGACTTCGTTGCTCCTCGCTCGTTCGGAGTCACCTAGTGCAG”, for which the binding signal was 8250 fluorescence intensity (a.u.).

As to “TTATATGCATCGACTAGCTCAACCTATCAACTTAACTAATCGGAGTCACCTAGTGCAG”, the binding signal is 9530 fluorescence intensity (a.u.).

In the case of “CCTCCTTGTTGCGGTCGTCTTTCGCTCTATCTTCCTTGTCCGGAGTCACCTAGTGCAG”, the binding signal is 11100 fluorescence intensity (a.u.).

Regarding “AGCCGGCCTCCGCTCCCATCGGCTGCGCCTCTCTGCGTCACGGAGTCACCTAGTGCAG”, the binding signal is 8320 fluorescence intensity (a.u.).

In the case of “CCCGCCGCTCCATGCCTGACCAGTTCAACTCCACCAACTCCGGAGTCACCTAGTGCAG”, the binding signal is 11000 fluorescence intensity (a.u.).

“CTATGTCCAACGTTTGACCGTCCGTCTTATTTAAAATATTCGGAGTCACCTAGTGCAG”: the binding signal was 8230 fluorescence intensity (a.u.).

Regarding “GTAATTTAATGTTCATTATGGTGTTTCTTAATTGTTTTTTCGGAGTCACCTAGTGCAG”, the binding signal is 9320 fluorescence intensity (a.u.).

For “GATGAGTGGTGATTGGTGAAGATATCTGGTGGTTTTGGGACGGAGTCACCTAGTGCAG”, the binding signal is 8630 fluorescence intensity (a.u.).

Consider “TACTGCCTCTCTCTGACCCCATTGACCAACTCCGTTGACCCGGAGTCACCTAGTGCAG”, for which the binding signal is 15800 fluorescence intensity (a.u.).

Consider “TCCATCTCCAAGTCCGGTGACTCAGTAATCACTTCGCACACGGAGTCACCTAGTGCAG”, for which the binding signal is 8270 fluorescence intensity (a.u.).

As to “ACTTTCATCACTTCGGAAGTATTTTTCTTGCATCTCTTGACGGAGTCACCTAGTGCAG”, the binding signal was 8480 fluorescence intensity (a.u.).

With “CCGCCCGGGCCCCGCGCCCACTGCCCCGCCGCCTCCCGCCCGGAGTCACCTAGTGCAG”, the binding signal was 10500 fluorescence intensity (a.u.).

As for “TGAGTAGGGTTAAGGTGTCTTCGTGTGTATTTTGTTCAATCGGAGTCACCTAGTGCAG”, the binding signal was 8600 fluorescence intensity (a.u.).

In the case of “CTACCTGTATAAAAACCCGCTTGCTAGTTCATTTCCCACACGGAGTCACCTAGTGCAG”, the binding signal was 9250 fluorescence intensity (a.u.).

Take “GATGGGTCAAACTCTCGTCTGACAACGTGATTCGCTCGCTCGGAGTCACCTAGTGCAG”: the binding signal was 8230 fluorescence intensity (a.u.).

In the case of “CTAATGTGGTCACTGTTTTTATTACACATTATTATCGGTTCGGAGTCACCTAGTGCAG”, the binding signal is 10000 fluorescence intensity (a.u.).

Take “TACCGTCGTGCTCCATCAATTCCATCTCCACGTGTTATTGCGGAGTCACCTAGTGCAG”: the binding signal was 10900 fluorescence intensity (a.u.).

With “GCCACCATGCACCATCCCTGGCCCTCGTGTCTCCTCAATACGGAGTCACCTAGTGCAG”, the binding signal was 9180 fluorescence intensity (a.u.).

On to “TTGTCATGATTTTCTCATTTTCCCCTATGAGTTTTTACATCGGAGTCACCTAGTGCAG”, for which the binding signal is 8540 fluorescence intensity (a.u.).

Regarding “ATGTGTCCGTGTCCATCCATATCCACGCCGGGCACAGCAACGGAGTCACCTAGTGCAG”, the binding signal was 9020 fluorescence intensity (a.u.).

For the sequence “GCAAGCGCATCGCATGTTGTACAGTACAAAATGGCCACCCCGGAGTCACCTAGTGCAG”, the binding signal was 8230 fluorescence intensity (a.u.).

Consider “AGGCTTTAGTGCTGCACACTCCAGTACTCCATCCAGCACCCGGAGTCACCTAGTGCAG”, for which the binding signal was 8380 fluorescence intensity (a.u.).

For the sequence “GAGATTGGGGTTTTGATGACGGGGAATTGATCTCGATCGTCGGAGTCACCTAGTGCAG”, the binding signal is 9400 fluorescence intensity (a.u.).

For the sequence “GAAACGAAACGCGTTTCTTCATTTGGTTAATTTTGCGCGTCGGAGTCACCTAGTGCAG”, the binding signal was 8480 fluorescence intensity (a.u.).

On to “GTTTGACCGGATATTGGATGGGGTTTTCGGACACGAATGACGGAGTCACCTAGTGCAG”, for which the binding signal was 8790 fluorescence intensity (a.u.).

Turning to “TCACCAGATCTTTTCAATGGTTTGCTTTGCTTGCTTTGCACGGAGTCACCTAGTGCAG”, the binding signal is 9360 fluorescence intensity (a.u.).

In the case of “ATGCCTATCATATGCGCATCAAATTTAGACCTAAATTTCCCGGAGTCACCTAGTGCAG”, the binding signal was 8520 fluorescence intensity (a.u.).

As to “CTATTTCACTTACGACAATTTTTTTGTGGCTCTTATATTTCGGAGTCACCTAGTGCAG”, the binding signal was 9510 fluorescence intensity (a.u.).

Regarding “ACTTGCTCTGACCATGACTGCCGTGTCCTACACATTAATCCGGAGTCACCTAGTGCAG”, the binding signal was 8180 fluorescence intensity (a.u.).

In the case of “TGTCATGGGACCAGAATTGCACGGTTTTGTATAGTTTAGGCGGAGTCACCTAGTGCAG”, the binding signal is 8150 fluorescence intensity (a.u.).

On to “GCGACACATGCCGCGCAGGCCCAGCGACCGGCGGCGCCGCCGGAGTCACCTAGTGCAG”, for which the binding signal is 8080 fluorescence intensity (a.u.).

For “TGTTGCATTCTAGTTGAAGTCTTCATAAACACCTTATTTGCGGAGTCACCTAGTGCAG”, the binding signal was 8250 fluorescence intensity (a.u.).
